Numbering of substitutions follows the chain as printed. These are yes or no findings as the source states them, for the method shown. Some binding calls cover weakened binding; strength is not graded here.
B1: Clone M1 (antibody, human IgG4 S228P, lambda, V domains shown)
VH: QVQLQQWGAGLLKPSETLSLTCAVYGGSFSGYYWSWIRQPPGKGLEWIGEINHSGSTNYNPSLKSRVTISVDTSKNQFSLRLSSVTAADTAMYYCARFTGRPYYGMDVWGQGTTVTVSS
VL: LSYELTQPPSVSATPGQRVTISCSGSESNIGSHKVKWYQQFAGAAPRLLIHGNDQRRSGVPDRFSGSKSGTSASLAISGLQSEDEADYYCAAWDDSLNGRVFGGGTKLTVLG
notes: also called antibody clone M1
B2: Clone M1 #55 (antibody, human IgG4 S228P, lambda, V domains shown)
VH: B1 VH with T99K
VL: B1 VL with S58E, N98Y
B3: Clone M1 #33 (antibody, human IgG4 S228P, lambda, V domains shown)
VH: B1 VH with N58R, T99I
VL: B1 VL with G52D
B4: Clone M1 #46 (antibody, human IgG4 S228P, lambda, V domains shown)
VH: B1 VH with T99S
VL: B1 VL with N98Y
B5: Clone M1 #11 (antibody, human IgG4 S228P, lambda, V domains shown)
VH: B1 VH with T99H
VL: B1 VL with S58R, N98Y
B6: Clone M1 #21 (antibody, human IgG4 S228P, lambda, V domains shown)
VH: B1 VH with H53Q
VL: B1 VL with R57F, N98Y
B7: Clone M1 #25 (antibody, human IgG4 S228P, lambda, V domains shown)
VH: B1 VH with T57V
VL: B1 VL with N98A

Protein sequences, listed by entry. Tags and fused reporters are not part of them. Lines headed by an entry give the natural chain unless they say otherwise; changes in a name come on top.
UniProt Q08722: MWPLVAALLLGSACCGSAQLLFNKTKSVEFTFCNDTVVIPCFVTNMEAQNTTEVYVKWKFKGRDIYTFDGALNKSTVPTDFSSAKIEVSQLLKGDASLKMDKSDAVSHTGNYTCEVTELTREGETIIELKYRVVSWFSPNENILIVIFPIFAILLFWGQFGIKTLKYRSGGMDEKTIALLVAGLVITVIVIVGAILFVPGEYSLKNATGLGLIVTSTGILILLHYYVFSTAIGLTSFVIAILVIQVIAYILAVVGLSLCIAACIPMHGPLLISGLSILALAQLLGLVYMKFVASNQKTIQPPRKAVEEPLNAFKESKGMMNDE

molecular target: CD47 on human cells (Raji, Jurkat, red blood cells) (human) (UniProt Q08722); assay: flow cytometry, whole-cell binding to Raji cells, FITC secondary antibody

binding, binds:
B1

molecular target: CD47 on human cells (Raji, Jurkat, red blood cells) (human) (UniProt Q08722); assay: flow cytometry competition: antibody and a fixed concentration of biotin-human SIRPα-Fc co-incubated with CD47-expressing cells (Jurkat in Example 2; the legend also names Raji), streptavidin-PE

binding, binds:
B1
B2
B3
B4
B5
B6

molecular target: CD47 on human cells (Raji, Jurkat, red blood cells) (human) (UniProt Q08722); assay: flow cytometry on Raji cells

binding, binds:
B1

molecular target: CD47 on human cells (Raji, Jurkat, red blood cells) (human) (UniProt Q08722); assay: flow cytometry, whole-cell binding to Jurkat cells

binding, binds:
B1
B2
B3
B4
B7
B5
B6

molecular target: CD47 on human cells (Raji, Jurkat, red blood cells) (human) (UniProt Q08722); assay: flow cytometry on Jurkat cells

binding, binds:
B1
B2
B3
B4
B7
B5
B6

molecular target: CD47 on human cells (Raji, Jurkat, red blood cells) (human) (UniProt Q08722); assay: flow cytometry, whole-cell binding to red blood cells

binding, binds:
B1
B2
B3
B4
B7
B5
B6

molecular target: CD47 on human cells (Raji, Jurkat, red blood cells) (human) (UniProt Q08722); assay: flow cytometry on red blood cells

binding, binds:
B1
B2
B3
B4
B7
B5
B6

Reference: patent US12630630 (SHANGHAI HENLIUS BIOTECH, dated 2026)
